The results in this text go back to the supplement of paper PMC10849652.

Protein sequences, listed by entry. Tags and fused reporters are not part of them. Lines headed by an entry give the natural chain unless they say otherwise; changes in a name come on top.
UniProt O00330, whole entry, looked up: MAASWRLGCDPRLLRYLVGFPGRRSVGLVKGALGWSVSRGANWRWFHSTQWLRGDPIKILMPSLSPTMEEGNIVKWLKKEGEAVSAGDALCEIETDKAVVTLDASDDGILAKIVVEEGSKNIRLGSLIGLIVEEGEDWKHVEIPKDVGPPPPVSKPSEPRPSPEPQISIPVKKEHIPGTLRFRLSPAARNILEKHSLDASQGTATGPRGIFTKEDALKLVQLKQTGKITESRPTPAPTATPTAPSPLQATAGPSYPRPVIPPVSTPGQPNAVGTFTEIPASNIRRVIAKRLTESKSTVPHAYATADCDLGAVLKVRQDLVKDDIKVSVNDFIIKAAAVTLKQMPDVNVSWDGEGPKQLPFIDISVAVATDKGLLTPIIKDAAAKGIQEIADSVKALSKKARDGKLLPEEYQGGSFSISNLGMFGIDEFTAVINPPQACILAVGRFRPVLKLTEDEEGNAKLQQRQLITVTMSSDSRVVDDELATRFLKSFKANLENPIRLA
UniProt Q5T2R2: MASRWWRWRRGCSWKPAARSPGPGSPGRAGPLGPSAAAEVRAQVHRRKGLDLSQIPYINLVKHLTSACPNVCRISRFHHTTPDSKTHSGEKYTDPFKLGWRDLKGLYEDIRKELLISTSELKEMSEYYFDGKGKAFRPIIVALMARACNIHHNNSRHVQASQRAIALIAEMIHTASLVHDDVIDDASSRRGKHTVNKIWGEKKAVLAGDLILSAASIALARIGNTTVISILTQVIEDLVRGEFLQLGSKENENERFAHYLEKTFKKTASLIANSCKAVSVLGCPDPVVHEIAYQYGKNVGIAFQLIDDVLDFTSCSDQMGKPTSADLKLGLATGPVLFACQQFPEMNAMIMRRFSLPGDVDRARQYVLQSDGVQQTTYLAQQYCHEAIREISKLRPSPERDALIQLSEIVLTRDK
UniProt P50479: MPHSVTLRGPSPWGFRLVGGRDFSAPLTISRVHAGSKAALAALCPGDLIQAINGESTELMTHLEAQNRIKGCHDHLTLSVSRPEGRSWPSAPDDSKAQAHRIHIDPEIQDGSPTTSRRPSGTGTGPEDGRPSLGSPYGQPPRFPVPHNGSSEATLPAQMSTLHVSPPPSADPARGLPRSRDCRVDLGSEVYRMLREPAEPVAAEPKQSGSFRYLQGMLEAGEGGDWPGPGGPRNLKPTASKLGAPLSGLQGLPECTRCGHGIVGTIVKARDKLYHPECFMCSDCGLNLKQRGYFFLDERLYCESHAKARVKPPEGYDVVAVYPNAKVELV
UniProt Q13177, whole entry, looked up: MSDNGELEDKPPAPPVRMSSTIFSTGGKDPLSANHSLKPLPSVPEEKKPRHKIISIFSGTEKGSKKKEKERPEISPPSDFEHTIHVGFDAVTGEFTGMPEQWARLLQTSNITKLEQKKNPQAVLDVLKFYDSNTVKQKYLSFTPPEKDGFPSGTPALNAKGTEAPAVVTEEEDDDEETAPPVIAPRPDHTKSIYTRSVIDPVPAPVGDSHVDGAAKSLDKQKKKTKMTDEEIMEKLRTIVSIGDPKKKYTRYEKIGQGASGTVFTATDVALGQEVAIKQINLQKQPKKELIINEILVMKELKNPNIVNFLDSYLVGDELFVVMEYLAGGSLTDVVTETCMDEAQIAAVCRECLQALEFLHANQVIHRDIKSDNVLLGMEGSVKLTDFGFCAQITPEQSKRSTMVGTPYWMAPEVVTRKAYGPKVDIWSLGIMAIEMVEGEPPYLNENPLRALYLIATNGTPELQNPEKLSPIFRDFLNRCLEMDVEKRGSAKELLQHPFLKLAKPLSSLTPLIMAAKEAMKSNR
UniProt Q6P996: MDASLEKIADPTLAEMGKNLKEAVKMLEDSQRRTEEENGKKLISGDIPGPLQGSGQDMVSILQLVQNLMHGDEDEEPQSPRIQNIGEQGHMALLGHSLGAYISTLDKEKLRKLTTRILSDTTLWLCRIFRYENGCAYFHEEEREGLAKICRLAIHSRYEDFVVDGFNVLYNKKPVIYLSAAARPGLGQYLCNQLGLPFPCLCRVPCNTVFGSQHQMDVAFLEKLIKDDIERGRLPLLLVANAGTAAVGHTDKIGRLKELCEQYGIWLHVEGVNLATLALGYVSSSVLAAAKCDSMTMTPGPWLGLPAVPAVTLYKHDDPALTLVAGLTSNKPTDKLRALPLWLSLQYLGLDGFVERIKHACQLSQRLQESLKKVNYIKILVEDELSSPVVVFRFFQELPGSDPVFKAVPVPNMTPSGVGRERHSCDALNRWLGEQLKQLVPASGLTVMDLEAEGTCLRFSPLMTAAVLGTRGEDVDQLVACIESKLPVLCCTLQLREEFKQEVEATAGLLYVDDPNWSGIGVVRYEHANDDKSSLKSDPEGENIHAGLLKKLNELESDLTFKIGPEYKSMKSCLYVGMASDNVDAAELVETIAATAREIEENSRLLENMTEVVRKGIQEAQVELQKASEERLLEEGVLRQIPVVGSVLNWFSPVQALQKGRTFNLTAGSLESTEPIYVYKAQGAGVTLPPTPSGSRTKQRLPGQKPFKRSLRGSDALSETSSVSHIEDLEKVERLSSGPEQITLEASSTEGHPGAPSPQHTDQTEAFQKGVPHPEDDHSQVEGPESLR
UniProt Q9UHG3: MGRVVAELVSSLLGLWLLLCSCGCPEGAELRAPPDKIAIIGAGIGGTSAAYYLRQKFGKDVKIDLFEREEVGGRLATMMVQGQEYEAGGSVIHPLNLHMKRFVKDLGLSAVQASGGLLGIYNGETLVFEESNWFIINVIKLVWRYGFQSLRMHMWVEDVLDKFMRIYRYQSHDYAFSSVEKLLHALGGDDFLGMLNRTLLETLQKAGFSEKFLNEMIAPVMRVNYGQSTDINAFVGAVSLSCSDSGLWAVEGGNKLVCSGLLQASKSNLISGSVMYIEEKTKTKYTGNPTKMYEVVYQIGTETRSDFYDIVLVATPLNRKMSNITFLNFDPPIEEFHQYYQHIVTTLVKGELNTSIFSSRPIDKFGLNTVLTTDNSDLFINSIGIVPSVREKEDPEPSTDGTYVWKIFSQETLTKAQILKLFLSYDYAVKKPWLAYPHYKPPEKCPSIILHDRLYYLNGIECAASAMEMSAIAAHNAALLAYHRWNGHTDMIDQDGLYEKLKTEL
UniProt Q96GD0: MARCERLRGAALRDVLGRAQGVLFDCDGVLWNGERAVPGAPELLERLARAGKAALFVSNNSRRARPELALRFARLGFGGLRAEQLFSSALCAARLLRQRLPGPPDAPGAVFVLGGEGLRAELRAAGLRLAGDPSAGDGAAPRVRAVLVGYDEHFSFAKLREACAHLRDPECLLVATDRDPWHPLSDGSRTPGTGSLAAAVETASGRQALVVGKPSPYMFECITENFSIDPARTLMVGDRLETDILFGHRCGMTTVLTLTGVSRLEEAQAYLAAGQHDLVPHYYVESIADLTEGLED
UniProt P56645: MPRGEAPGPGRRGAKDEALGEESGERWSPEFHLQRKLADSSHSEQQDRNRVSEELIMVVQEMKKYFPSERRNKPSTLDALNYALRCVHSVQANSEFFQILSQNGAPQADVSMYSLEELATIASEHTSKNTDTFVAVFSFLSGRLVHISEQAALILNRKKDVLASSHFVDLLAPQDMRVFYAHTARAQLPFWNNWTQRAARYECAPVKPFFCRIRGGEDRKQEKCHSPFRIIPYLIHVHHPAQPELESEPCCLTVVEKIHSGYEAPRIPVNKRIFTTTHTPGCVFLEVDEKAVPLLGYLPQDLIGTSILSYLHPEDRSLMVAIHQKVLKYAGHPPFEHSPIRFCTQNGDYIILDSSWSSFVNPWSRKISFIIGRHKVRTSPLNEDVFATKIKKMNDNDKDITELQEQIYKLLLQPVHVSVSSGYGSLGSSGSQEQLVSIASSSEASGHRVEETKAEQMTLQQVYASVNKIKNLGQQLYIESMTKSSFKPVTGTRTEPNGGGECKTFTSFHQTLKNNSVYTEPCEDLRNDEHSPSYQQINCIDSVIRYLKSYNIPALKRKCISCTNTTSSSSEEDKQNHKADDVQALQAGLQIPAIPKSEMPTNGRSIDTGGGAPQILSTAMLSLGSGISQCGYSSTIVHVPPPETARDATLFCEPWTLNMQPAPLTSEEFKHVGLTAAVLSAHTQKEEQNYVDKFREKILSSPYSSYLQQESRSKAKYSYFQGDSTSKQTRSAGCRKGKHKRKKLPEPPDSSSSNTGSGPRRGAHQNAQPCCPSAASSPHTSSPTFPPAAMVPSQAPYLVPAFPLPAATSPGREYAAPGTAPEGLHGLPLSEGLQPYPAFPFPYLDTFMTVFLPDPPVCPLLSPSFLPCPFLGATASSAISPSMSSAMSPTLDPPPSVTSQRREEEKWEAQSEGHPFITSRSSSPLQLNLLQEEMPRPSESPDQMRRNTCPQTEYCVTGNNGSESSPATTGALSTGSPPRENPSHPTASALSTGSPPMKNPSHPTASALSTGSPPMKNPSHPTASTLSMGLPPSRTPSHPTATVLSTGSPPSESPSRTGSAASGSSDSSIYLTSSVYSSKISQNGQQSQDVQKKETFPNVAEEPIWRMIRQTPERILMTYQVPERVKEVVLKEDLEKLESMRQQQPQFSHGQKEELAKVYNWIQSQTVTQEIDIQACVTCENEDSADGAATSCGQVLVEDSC
UniProt O00541, whole entry, looked up: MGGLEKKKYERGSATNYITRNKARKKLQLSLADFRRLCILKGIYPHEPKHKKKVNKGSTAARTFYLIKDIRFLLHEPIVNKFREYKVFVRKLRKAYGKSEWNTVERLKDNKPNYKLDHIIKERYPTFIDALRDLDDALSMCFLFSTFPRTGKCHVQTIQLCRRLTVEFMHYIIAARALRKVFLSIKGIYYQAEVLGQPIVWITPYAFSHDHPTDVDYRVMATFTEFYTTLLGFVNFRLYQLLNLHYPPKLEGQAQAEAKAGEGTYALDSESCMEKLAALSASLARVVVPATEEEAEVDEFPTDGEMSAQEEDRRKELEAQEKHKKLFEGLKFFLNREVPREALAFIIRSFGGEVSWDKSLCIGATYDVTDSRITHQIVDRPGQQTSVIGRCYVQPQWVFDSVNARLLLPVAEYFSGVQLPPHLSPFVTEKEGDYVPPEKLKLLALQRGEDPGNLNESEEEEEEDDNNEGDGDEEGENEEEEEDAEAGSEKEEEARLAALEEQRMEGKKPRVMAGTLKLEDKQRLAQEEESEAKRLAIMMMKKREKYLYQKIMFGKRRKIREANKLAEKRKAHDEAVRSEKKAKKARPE
UniProt Q9NUG6, whole entry, looked up: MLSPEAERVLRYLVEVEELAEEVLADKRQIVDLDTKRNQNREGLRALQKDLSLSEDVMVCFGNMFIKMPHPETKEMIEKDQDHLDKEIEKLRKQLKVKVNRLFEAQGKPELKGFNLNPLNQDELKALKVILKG
UniProt O00764: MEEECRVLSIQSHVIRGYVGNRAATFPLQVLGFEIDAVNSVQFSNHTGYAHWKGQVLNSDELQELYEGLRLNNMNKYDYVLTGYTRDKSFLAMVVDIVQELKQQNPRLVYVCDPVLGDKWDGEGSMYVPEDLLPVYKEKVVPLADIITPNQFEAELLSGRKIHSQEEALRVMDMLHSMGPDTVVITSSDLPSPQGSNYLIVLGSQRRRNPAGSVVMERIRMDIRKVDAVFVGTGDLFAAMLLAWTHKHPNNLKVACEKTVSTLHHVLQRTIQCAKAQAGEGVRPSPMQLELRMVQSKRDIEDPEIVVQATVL
UniProt Q13310, whole entry, looked up: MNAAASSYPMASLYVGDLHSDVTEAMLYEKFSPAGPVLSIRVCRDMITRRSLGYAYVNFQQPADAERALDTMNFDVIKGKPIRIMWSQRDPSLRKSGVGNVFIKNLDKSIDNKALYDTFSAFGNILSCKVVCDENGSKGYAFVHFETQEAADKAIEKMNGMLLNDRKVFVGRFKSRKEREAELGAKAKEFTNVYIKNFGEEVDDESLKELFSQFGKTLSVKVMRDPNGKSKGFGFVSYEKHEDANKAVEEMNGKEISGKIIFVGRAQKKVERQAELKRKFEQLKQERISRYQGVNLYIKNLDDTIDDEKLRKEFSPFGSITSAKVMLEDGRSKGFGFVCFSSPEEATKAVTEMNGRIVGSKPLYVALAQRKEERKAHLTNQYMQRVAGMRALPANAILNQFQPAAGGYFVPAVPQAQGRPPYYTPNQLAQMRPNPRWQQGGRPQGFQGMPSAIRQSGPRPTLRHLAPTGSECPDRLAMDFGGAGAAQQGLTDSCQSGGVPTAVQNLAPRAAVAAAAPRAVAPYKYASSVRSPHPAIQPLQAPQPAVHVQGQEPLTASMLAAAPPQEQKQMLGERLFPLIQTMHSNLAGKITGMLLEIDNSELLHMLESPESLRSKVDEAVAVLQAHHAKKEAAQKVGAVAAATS
UniProt P22061: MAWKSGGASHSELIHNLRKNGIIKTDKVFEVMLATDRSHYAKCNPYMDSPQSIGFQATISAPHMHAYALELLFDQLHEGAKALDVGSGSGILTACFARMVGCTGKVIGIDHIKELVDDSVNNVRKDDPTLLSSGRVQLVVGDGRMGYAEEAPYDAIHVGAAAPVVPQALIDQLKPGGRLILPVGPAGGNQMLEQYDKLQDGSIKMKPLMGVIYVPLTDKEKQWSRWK

The other results are listed elsewhere or left out.

Compound in this assay: Cc1cc(Nc2cc(N3CCN(C)CC3)nc(Sc3ccc(NC(=O)C4CC4)cc3)n2)n[nH]1 [tozasertib]
Description: log2 fold change, soluble protein after heating vs DMSO (PISA); higher = thermal stabilisation; K562 cells, 10 uM, 30 min; active = over 0.2 and 3.5 SD of the protein, either way, in both replicates (recomputed). A digest of the protocol: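 K562 cells at 2×10^6 cells/mL were given 10 μM compound for 30 min. Aliquots then went through 3 min of heating across 48°C-58°C, were pooled, and were extracted in PBS with 0.5% NP-40 at 4°C, and the supernatant after 21,000xg for 90 min was quantified by TMTpro 16plex LC-MS/MS with channel sums equalised. Thermal stability relative to control samples, from duplicates, is given as log2 fold change.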
Take PEX12 (UniProt O00623): the log2 fold change is inactive: -0.015.

As to PDHX (UniProt O00330), the log2 fold change is inactive: 0.122.

For PANK4 (UniProt Q9NVE7), the log2 fold change was inactive: -0.017.

For the target PDSS1 (UniProt Q5T2R2), the log2 fold change is inactive: 0.024.

Take PDLIM1 (UniProt O00151): the log2 fold change was inactive: -0.004.

As for PDLIM4 (UniProt P50479), the log2 fold change was inactive: 0.009.

In the case of PAK2 (UniProt Q13177), the log2 fold change was inactive: 0.024.

Consider PACSIN2 (UniProt Q9UNF0), for which the log2 fold change is inactive: -0.044.

As to PDXDC1 (UniProt Q6P996), the log2 fold change is inactive: 0.088.

On to PASK (UniProt Q96RG2), for which the log2 fold change is inactive: -0.009.

Regarding PARD6B (UniProt Q9BYG5), the log2 fold change was inactive: -0.075.

Consider PEBP1 (UniProt P30086), for which the log2 fold change was inactive: -0.018.

Take PCYOX1 (UniProt Q9UHG3): the log2 fold change was inactive: 0.028.

Consider PDXP (UniProt Q96GD0), for which the log2 fold change is inactive: -0.061.

PER3 isoform 2 (UniProt P56645): the log2 fold change is inactive: 0.019.

Regarding PEX1 (UniProt O43933), the log2 fold change is inactive: 0.034.

For the target PARK7 (UniProt Q99497), the log2 fold change is inactive: 0.004.

For the target PAK1IP1 (UniProt Q9NWT1), the log2 fold change is inactive: 0.054.

As to PES1 (UniProt O00541), the log2 fold change is inactive: 0.075.

Turning to PDRG1 (UniProt Q9NUG6), the log2 fold change was inactive: -0.05.

Take PDXK (UniProt O00764): the log2 fold change is inactive: -0.037.

Take PABPC4 isoform 3 (UniProt Q13310): the log2 fold change was inactive: 0.056.

PCMT1 isoform 2 (UniProt P22061): the log2 fold change is inactive: 0.028.
